In article doi:10.1101/2023.09.29.560113 one finds binding data, which are given here for four substances.

Experiment [1] addresses T1, NET4A-Cub (Arabidopsis thaliana) (UniProt F4KEW8).
T1 sequence: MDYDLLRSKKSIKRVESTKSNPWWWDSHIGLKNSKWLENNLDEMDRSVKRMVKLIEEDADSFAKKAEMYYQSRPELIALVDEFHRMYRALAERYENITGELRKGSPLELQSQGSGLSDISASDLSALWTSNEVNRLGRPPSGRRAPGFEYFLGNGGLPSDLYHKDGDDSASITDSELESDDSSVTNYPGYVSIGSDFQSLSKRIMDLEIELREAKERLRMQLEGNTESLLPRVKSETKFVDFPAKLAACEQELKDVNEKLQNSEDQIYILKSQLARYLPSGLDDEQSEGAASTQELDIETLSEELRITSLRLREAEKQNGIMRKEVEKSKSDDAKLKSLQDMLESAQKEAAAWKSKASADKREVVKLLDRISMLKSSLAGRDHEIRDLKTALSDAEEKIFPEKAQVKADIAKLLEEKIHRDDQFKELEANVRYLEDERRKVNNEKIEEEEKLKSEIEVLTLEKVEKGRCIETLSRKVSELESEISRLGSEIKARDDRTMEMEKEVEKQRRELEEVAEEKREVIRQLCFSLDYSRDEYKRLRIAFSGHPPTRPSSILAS
Put plainly: two-hybrid.

The target in experiment [2] is T2, NET4A, rBiFC fusion (Arabidopsis thaliana) (UniProt F4KEW8).
T2 sequence: T1 sequence
Put plainly: split reporter.

No constants are given. Whether binding was seen depends on the method and setting. Binding calls can cover weak binding; strength is not graded here. For some of these results: In cells and extracts the contact can be indirect. For some of these results: Sequences can lack the tags named with a protein.

In the case of “At2g15042, mbSUS fusion (Arabidopsis thaliana)”, the binding entry in experiment [1] is “no binding”. As for “At2g15042, rBiFC fusion (Arabidopsis thaliana)”, the binding result in experiment [2] is given as “no binding”. In the case of “At4g01245, mbSUS fusion (Arabidopsis thaliana)”, the binding result in experiment [1] was “binds”. Consider “At4g01245, rBiFC fusion (Arabidopsis thaliana)”, for which the binding entry in experiment [2] is listed as “binds”.
